We go through one substance from patent US12139558B2 (Ferring B.V., priority 2017, dated 2024).

This data set is described as follows: peptide synthesis. To be noted: whole synthesis, UV 220 nm, relative UV area % of total area.

Regarding carbetocin, the “crude HPLC purity” value is “approximately 91.3%”.
